Source: patent publication US20260356830A1, “COMPOUNDS FOR MODULATING RET PROTEIN” (Bristol-Myers Squibb Company, priority 2022, published 2026)

Sequences of proteins named here, by UniProt entry; tags and fusion partners are left off.
UniProt P07949, whole entry, looked up: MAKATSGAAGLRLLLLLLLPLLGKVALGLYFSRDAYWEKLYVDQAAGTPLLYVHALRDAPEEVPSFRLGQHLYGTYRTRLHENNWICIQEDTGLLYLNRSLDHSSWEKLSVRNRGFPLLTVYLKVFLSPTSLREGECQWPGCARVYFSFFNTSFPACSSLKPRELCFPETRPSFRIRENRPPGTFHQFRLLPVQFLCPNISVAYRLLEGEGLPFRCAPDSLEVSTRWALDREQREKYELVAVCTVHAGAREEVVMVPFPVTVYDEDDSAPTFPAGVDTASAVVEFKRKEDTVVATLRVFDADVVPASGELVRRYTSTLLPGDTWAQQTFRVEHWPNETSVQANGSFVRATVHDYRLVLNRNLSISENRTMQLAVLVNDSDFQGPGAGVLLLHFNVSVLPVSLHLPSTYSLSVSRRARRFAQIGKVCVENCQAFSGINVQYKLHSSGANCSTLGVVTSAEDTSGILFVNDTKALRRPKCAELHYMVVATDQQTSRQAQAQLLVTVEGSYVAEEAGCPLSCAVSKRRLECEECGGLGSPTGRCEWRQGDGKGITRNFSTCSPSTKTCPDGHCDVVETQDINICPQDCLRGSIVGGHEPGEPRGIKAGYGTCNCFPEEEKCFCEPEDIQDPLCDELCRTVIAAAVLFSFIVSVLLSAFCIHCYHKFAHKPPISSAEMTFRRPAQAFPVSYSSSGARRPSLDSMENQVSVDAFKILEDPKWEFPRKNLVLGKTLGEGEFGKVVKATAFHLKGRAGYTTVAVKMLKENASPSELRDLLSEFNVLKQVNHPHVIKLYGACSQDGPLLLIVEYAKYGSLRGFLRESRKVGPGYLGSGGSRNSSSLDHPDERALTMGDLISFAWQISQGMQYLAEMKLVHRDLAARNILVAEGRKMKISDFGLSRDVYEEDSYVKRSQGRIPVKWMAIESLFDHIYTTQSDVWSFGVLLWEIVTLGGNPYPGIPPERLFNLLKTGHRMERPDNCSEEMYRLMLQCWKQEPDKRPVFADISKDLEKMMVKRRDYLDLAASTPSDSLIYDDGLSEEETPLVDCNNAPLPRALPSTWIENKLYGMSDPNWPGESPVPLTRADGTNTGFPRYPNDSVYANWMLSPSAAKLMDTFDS
UniProt Q16204, whole entry, looked up: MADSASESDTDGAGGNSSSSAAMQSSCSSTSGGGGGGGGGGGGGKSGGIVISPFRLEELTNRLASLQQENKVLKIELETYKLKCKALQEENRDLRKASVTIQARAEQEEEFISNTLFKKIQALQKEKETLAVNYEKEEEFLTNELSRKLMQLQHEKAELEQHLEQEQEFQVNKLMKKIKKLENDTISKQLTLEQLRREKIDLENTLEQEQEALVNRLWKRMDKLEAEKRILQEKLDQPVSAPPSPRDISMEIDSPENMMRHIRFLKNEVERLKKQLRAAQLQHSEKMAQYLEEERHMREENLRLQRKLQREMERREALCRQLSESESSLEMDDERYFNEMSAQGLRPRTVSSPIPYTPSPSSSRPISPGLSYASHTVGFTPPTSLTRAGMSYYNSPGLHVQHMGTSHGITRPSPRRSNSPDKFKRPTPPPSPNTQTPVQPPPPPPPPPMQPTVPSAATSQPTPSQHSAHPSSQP
UniProt Q96SW2, whole entry, looked up: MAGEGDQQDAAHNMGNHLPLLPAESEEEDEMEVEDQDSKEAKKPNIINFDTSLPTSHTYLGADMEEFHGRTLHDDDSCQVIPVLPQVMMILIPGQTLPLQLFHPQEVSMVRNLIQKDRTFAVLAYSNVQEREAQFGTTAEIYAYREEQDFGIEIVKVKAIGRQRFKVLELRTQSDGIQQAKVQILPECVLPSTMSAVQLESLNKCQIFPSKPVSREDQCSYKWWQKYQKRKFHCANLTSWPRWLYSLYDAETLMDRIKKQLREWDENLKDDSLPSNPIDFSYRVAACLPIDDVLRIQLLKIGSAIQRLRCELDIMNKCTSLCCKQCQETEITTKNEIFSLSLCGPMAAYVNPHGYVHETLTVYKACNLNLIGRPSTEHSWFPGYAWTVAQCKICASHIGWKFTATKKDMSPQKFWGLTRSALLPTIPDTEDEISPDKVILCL

Molecular target: CCDC6-RET (Homo sapiens, UniProt P07949+Q16204+Q96SW2)
Test: Cellular RET degradation, AlphaLISA, TPC-1 cell line
Type: cell-based

CCOc1cc(-c2ccc(N3CCC(COCCN4CCN(CCCN5CCC(c6ccc7c(c6)C(=O)N(C6CCC(=O)NC6=O)C7)CC5)CC4)(NC(=O)c4cc(F)ccc4F)CC3)nc2)c2c(C#N)cnn2c1 (centres unmarked)
Cell Density TPC-1/CCDC6-RET Ymax % (maximum degradation, 24 hrs): * (60%<Y≤90%) | DC50 (read-out: Cell Density TPC-1/CCDC6-RET DC50, half-maximal degradation concentration, 24 hrs): 10 to 100 nM

Structures were worked out from names or drawings and are uncertain.
